Binding data for one molecule are collected here from paper PMC6858779.

This assay addresses T1, chemerin (mouse (endogenous in fetal mouse brain)) (UniProt Q9DD06).
T1 sequence: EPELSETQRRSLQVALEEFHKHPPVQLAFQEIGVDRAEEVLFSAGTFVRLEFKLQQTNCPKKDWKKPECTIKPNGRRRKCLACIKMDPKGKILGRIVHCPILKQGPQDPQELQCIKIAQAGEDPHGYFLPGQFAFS
The assay can be described thus: co-IP; RIPA lysate of whole brain tissue of E18.5 fetal mice (two fetal brains) from control and chemerin-induced diabetic dams; incubated with Protein A/G-Sepharose and anti-chemerin overnight, three washes in PBS, precipitate analysed by western blotting. On the technique in general: In western blotting, separated proteins are transferred to a membrane and probed.

No constants are given. Whether binding was seen depends on the method and setting. In cells and extracts the contact can be indirect. Some binding calls cover weakened binding; strength is not graded here.

B1: chemokine (C-C motif) receptor-like 2 (CCRL2) (receptor, UniProt O35457 1-360)
chain: MDNYTVAPDDEYDVLILDDYLDNSGPDQVPAPEFLSPQQVLQFCCAVFAVGLLDNVLAVFILVKYKGLKNLGNIYFLNLALSNLCFLLPLPFWAHTAAHGESPGNGTCKVLVGLHSSGLYSEVFSNILLLVQGYRVFSQGRLASIFTTVSCGIVACILAWAMATALSLPESVFYEPRMERQKHKCAFGKPHFLPIEAPLWKYVLTSKMIILVLAFPLLVFIICCRQLRRRQSFRERQYDLHKPALVITGVFLLMWAPYNTVLFLSAFQEHLSLQDEKSSYHLDASVQVTQLVATTHCCVNPLLYLLLDRKAFMRYLRSLFPRCNDIPYQSSGGYQQAPPREGHGRPIELYSNLHQRQDII
Turning to B1, the binding entry is given as “binds”.
